Results reported in patent US10501780B2, “Compositions for in situ nucleic acid analysis” (APPLIED BIOSYSTEMS, LLC, priority 2007, dated 2019).

Experiment: FAM background fluorescence and Rn in qPCR amplification plots with surfactants
Settings: surfactant 0.01% to 1%; FAM fluor, MGB quencher

Row | Substance | background fluorescence (Ro), FAM | effect on Rn (fluorescence corrected to ROX)
1 | octylphenol ethoxylate having an average of 9.5 ethoxylate groups [TRITON X-100™] | increased | decreased
2 | octylphenolpoly(ethyleneglycolether) [NONIDET P-40™] | increased | decreased
3 | dodecyl alcohol polyoxyethylene ether [THESIT™] | increased | little effect
